Experimental data from paper doi:10.1101/2023.06.14.544957.
Results are given in words; binding and its absence hold for the method and conditions named. In cells and extracts the contact can be indirect. Some results given as binding are weak or reduced against the parent protein; the word gives no strength. Sequences can lack the tags named with a protein.

Amino acid sequences for entries named in this document (tags omitted). A change or cut given only in a name is not applied to a line headed by its entry.
UniProt P22227, whole entry: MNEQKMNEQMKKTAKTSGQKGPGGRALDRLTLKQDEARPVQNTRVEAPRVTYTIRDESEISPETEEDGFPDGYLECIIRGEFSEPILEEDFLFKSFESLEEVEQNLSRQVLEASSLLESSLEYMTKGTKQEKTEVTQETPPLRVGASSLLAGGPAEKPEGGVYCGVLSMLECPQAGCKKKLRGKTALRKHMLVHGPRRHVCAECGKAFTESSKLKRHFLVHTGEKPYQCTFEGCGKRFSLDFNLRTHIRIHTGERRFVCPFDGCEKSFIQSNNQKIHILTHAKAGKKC

Key:
Assay in all cases: co-IP
[1] = biological target: T1, HA-tagged mouse RNF12 ΔBR2 (lacking amino acids 348-381) (mouse) (UniProt Q9WTV7)
T1 sequence: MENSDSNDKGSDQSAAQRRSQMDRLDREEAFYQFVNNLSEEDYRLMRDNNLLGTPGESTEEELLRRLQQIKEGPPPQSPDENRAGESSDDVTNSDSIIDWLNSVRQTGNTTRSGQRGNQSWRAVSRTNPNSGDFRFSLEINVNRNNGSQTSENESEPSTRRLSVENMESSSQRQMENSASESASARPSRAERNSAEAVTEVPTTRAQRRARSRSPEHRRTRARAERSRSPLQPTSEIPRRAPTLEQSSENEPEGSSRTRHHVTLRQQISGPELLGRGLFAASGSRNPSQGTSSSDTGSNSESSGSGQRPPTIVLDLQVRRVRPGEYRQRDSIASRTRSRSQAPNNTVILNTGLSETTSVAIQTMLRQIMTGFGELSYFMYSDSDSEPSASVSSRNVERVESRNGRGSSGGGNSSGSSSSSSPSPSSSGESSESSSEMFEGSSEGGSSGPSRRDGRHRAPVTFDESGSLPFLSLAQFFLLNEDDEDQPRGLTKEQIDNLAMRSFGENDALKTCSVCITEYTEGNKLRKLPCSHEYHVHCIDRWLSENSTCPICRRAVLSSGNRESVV

[2] = biological target: T2, HA-tagged mouse RNF12 Δ1-206 (ΔN) (mouse) (UniProt Q9WTV7)
T2 sequence: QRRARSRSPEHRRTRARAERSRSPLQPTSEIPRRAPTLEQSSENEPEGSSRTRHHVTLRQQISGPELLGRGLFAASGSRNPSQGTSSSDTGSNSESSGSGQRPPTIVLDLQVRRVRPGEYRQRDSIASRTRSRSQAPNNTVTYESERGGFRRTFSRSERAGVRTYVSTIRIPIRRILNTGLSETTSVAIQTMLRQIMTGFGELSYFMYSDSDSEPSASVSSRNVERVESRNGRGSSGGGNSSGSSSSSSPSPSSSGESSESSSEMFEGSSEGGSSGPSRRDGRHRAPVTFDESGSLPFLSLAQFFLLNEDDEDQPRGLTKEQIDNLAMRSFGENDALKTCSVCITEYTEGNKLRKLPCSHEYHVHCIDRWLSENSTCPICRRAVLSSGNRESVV

[3] = biological target: T3, HA-tagged mouse RNF12 WT (1-600) (mouse) (UniProt Q9WTV7)
T3 sequence: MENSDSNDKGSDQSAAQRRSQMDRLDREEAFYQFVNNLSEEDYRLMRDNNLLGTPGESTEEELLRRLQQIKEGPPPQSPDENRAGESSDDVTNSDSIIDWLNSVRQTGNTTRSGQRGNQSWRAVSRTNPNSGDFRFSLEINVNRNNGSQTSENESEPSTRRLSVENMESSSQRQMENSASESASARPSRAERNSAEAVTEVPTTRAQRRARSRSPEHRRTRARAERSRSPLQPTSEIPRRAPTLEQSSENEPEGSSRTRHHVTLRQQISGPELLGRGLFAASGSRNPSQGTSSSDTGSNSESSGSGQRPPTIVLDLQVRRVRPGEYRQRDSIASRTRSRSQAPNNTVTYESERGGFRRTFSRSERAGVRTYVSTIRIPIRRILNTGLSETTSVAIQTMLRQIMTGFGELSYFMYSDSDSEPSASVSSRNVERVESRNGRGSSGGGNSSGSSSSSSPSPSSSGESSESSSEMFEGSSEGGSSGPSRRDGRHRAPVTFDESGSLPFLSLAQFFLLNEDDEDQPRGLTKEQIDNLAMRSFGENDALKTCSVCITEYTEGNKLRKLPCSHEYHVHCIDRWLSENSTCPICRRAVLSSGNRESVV

binding [1]: binds
binding [2]: binds
binding [3]: binds
Substance: FLAG-REX1 (from UniProt P22227 1-288)
